Experimental findings from patent US10717090B2, “Depression of copper and iron sulfides in molybdenite flotation circuits” (TESSENDERLO KERLEY, INC., priority 2014, dated 2020) are described below.

This series in a line: Laboratory flotation test separating molybdenite from Cu/Mo concentrate with depressant. Conditions: for K (ratio of Mo concentration removed): K=[% Mo in concentrate-% Mo in tail]/[% Mo in feed-% Mo in tail]; for Conc., Wt % (weight percent floated compared to the feed weight) / Cu % (assay of the concentrate) / Fe % (assay of the concentrate) / Mo % (assay of the concentrate) / Tail Mo % (tailing molybdenum assay): lab flotation, averages of multiple series of testing.

In the case of Sodium Polysulfide [NaPS], the “K (ratio of Mo concentration removed)” value was found to be 8.7; the “Conc., Wt % (weight percent floated compared to the feed weight)” value is recorded as 11.5%; the “Cu % (assay of the concentrate)” value was found to be 13.1%; the “Fe % (assay of the concentrate)” value amounted to 7.3%. In addition, the “Mo % (assay of the concentrate)” value is on record as 36.6% and the “Tail Mo % (tailing molybdenum assay)” value was 0.15%.
Turning to `S` [NaHS, Sodium hydrosulfide, reference compound], the “K (ratio of Mo concentration removed)” value is 10.5; the “Conc., Wt % (weight percent floated compared to the feed weight)” value is given as 9.5%; the “Cu % (assay of the concentrate)” value was found to be 16.6%; the “Fe % (assay of the concentrate)” value was determined as 18.6%. Besides, the “Mo % (assay of the concentrate)” value is listed as 15.2% and the “Tail Mo % (tailing molybdenum assay)” value is 0.04%.
Consider Calcium Polysulfide [CaPS], for which the “K (ratio of Mo concentration removed)” value is given as 11.3; the “Conc., Wt % (weight percent floated compared to the feed weight)” value amounted to 8.8%; the “Cu % (assay of the concentrate)” value worked out at 18.9%; the “Fe % (assay of the concentrate)” value was 17.9%. Further, the “Mo % (assay of the concentrate)” value is 15.9% and the “Tail Mo % (tailing molybdenum assay)” value is reported as 0.07%.
Turning to Potassium Polysulfide [KPS], the “K (ratio of Mo concentration removed)” value is 10.6; the “Conc., Wt % (weight percent floated compared to the feed weight)” value is 9.4%; the “Cu % (assay of the concentrate)” value was 17.3%; the “Fe % (assay of the concentrate)” value was 18.9%. The “Mo % (assay of the concentrate)” value is on record as 14.9% and the “Tail Mo % (tailing molybdenum assay)” value is 0.05%.
